Measurements taken from the supplement of paper PMC8728848.
The list shows a part of the results.

What was measured:
Test in all cases: glycan array binding signal (z-score within array); higher = stronger binding
Settings in all cases: glycan notation: IUPAC condensed, linker removed
[1] = target: Neu5Ac(a2-3)Gal(b1-4)GlcNAc(b1-6)GalNAc
Procedure, shortened: (§1)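 The binding signal is a Z-score computed within each array and averaged over linkers. Arrays of the same protein sequence at different concentrations or buffers were also averaged together. Data originate from 3228 arrays in the Consortium for Functional Glycomics database, kept only where the protein sequence was available.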

[2] = target: Neu5Ac(a2-3)Gal(b1-4)GlcNAc(b1-6)[Gal(b1-3)]GalNAc
Procedure, shortened: as §1

[3] = target: Neu5Ac(a2-3)Gal(b1-4)GlcNAc(b1-6)[Neu5Ac(a2-3)Gal(b1-3)]GalNAc
Procedure, shortened: as §1

[4] = target: Neu5Ac(a2-3)Gal(b1-4)GlcNAc6S
Procedure, shortened: as §1

[5] = target: Neu5Ac(a2-3)Gal(b1-4)[Fuc(a1-3)]GlcNAc
Procedure, shortened: as §1

[6] = target: Neu5Ac(a2-3)Gal(b1-4)[Fuc(a1-3)]GlcNAc(b1-2)Man
Procedure, shortened: as §1

[7] = target: Neu5Ac(a2-3)Gal(b1-4)[Fuc(a1-3)]GlcNAc(b1-3)Gal
Procedure, shortened: as §1

[8] = target: Neu5Ac(a2-3)Gal(b1-4)[Fuc(a1-3)]GlcNAc(b1-3)Gal(b1-4)GlcNAc
Procedure, shortened: as §1

[9] = target: Neu5Ac(a2-3)Gal(b1-4)[Fuc(a1-3)]GlcNAc(b1-3)Gal(b1-4)[Fuc(a1-3)]GlcNAc(b1-3)Gal(b1-4)[Fuc(a1-3)]GlcNAc
Procedure, shortened: as §1

[10] = target: Neu5Ac(a2-3)Gal(b1-4)[Fuc(a1-3)]GlcNAc(b1-3)GalNAc
Procedure, shortened: as §1

[11] = target: Neu5Ac(a2-3)Gal(b1-4)[Fuc(a1-3)]GlcNAc(b1-6)[Gal(b1-3)]GalNAc
Procedure, shortened: as §1

[12] = target: Neu5Ac(a2-3)Gal(b1-4)[Fuc(a1-3)]GlcNAc(b1-6)[Neu5Ac(a2-3)Gal(b1-3)]GalNAc
Procedure, shortened: as §1

[13] = target: Neu5Ac(a2-3)Gal(b1-4)[Fuc(a1-3)]GlcNAc6S
Procedure, shortened: as §1

[14] = target: Neu5Ac(a2-3)Gal6S(b1-4)GlcNAc
Procedure, shortened: as §1

[15] = target: Neu5Ac(a2-3)Gal6S(b1-4)[Fuc(a1-3)]GlcNAc
Procedure, shortened: as §1

Neu5Ac(a2-3)GalNAc = target: Neu5Ac(a2-3)GalNAc
Procedure, shortened: as §1

[16] = target: Neu5Ac(a2-3)GalNAc(b1-4)GlcNAc
Procedure, shortened: as §1

[17] = target: Neu5Ac(a2-3)[GalNAc(b1-4)]Gal(b1-4)Glc
Procedure, shortened: as §1

[18] = target: Neu5Ac(a2-3)[GalNAc(b1-4)]Gal(b1-4)GlcNAc
Procedure, shortened: as §1

[19] = target: Neu5Ac(a2-3)[GalNAc(b1-4)]Gal(b1-4)GlcNAc(b1-3)GalNAc
Procedure, shortened: as §1

[20] = target: Neu5Ac(a2-3)[Neu5Ac(a2-6)]GalNAc
Procedure, shortened: as §1

Neu5Ac(a2-6)Gal = target: Neu5Ac(a2-6)Gal
Procedure, shortened: as §1

[21] = target: Neu5Ac(a2-6)Gal(b1-3)GlcNAc(b1-3)[Gal(b1-4)GlcNAc(b1-6)]Gal(b1-4)Glc
Procedure, shortened: as §1

Neu5Ac(a2-6)Gal(b1-4)Glc = target: Neu5Ac(a2-6)Gal(b1-4)Glc
Procedure, shortened: as §1

[22] = target: Neu5Ac(a2-6)Gal(b1-4)GlcNAc
Procedure, shortened: as §1

[23] = target: Neu5Ac(a2-6)Gal(b1-4)GlcNAc(b1-2)Man
Procedure, shortened: as §1

[24] = target: Neu5Ac(a2-6)Gal(b1-4)GlcNAc(b1-2)Man(a1-3)Man(b1-4)GlcNAc(b1-4)GlcNAc
Procedure, shortened: as §1

[25] = target: Neu5Ac(a2-6)Gal(b1-4)GlcNAc(b1-2)Man(a1-3)[Gal(b1-4)GlcNAc(b1-2)Man(a1-6)]Man(b1-4)GlcNAc(b1-4)GlcNAc
Procedure, shortened: as §1

[26] = target: Neu5Ac(a2-6)Gal(b1-4)GlcNAc(b1-2)Man(a1-3)[GlcNAc(b1-2)Man(a1-6)]Man(b1-4)GlcNAc(b1-4)GlcNAc
Procedure, shortened: as §1

[27] = target: Neu5Ac(a2-6)Gal(b1-4)GlcNAc(b1-2)Man(a1-3)[GlcNAc(b1-4)][Neu5Ac(a2-6)Gal(b1-4)GlcNAc(b1-2)Man(a1-6)]Man(b1-4)GlcNAc(b1-4)GlcNAc
Procedure, shortened: as §1

[28] = target: Neu5Ac(a2-6)Gal(b1-4)GlcNAc(b1-2)Man(a1-3)[Man(a1-6)]Man(b1-4)GlcNAc(b1-4)GlcNAc
Procedure, shortened: as §1

B1: PX14343C-bfa-541-26-541 (Bacteroides fragilis) (protein)
chain: KAPLDEIADDSFWSDETLVKYYVNDLYSEISVDGLQLQENRSDNSVSAQRDKYRASWFKFNYDMVSASDPQDDDVWEDYYVKVRKCNRFFERIGTSTIEESEKSRLTGEVHFLRAMFYFEMVKRYGGVILLDKVLTMEDNWEIPRSSEKECYDFILEDLKKATEMLPASYGSREKGRATKGAAYALKSRVELYDKRYEDVIKSCAEVYKLGYELVDGTTPEKYRSIWWTTNKDNKEIIFDVQYKSPDVYNNMMVCNMVTYINDKYGDRGWGGLGPTQELIDAFEMADGTPATQYSQAPADQVFDINTCGIYEGREPRFYANIVFHGSQIFFNADKGAVTVDRYLMDTPDKGDGSLTGYNVWKWIDYDNYNYPYAGAGSPDFSTNWIILRYAEIYLNDAEARLETGDVEGARKAVNMIRQRVGLPDLTESDPEKLRELIRKERRIEFAFEEQRFYDVRRWKIGPETQTTLHGVRFVSPTEFKVTKTDIRTWNDRLYLTPVPHDEIVRSSVLKQNLGY
- glycan array binding signal (z-score) [1]: 0.25
- glycan array binding signal (z-score) [2]: -0.756
- glycan array binding signal (z-score) [3]: -0.291
- glycan array binding signal (z-score) [4]: -0.358
- glycan array binding signal (z-score) [5]: -0.688
- glycan array binding signal (z-score) [6]: -0.669
- glycan array binding signal (z-score) [7]: -0.275
- glycan array binding signal (z-score) [8]: -0.19
- glycan array binding signal (z-score) [9]: 0.044
- glycan array binding signal (z-score) [10]: 0.474
- glycan array binding signal (z-score) [11]: -0.182
- glycan array binding signal (z-score) [12]: -0.091
- glycan array binding signal (z-score) [13]: -0.7
- glycan array binding signal (z-score) [14]: -0.876
- glycan array binding signal (z-score) [15]: -1.03
- glycan array binding signal (z-score) (Neu5Ac(a2-3)GalNAc): -0.755
- glycan array binding signal (z-score) [16]: -0.138
- glycan array binding signal (z-score) [17]: 3.41
- glycan array binding signal (z-score) [18]: 0.034
- glycan array binding signal (z-score) [19]: 0.173
- glycan array binding signal (z-score) [20]: -0.014
- glycan array binding signal (z-score) (Neu5Ac(a2-6)Gal): -0.786
- glycan array binding signal (z-score) [21]: 0.425
- glycan array binding signal (z-score) (Neu5Ac(a2-6)Gal(b1-4)Glc): -0.113
- glycan array binding signal (z-score) [22]: -0.496
- glycan array binding signal (z-score) [23]: 0.443
- glycan array binding signal (z-score) [24]: -0.352
- glycan array binding signal (z-score) [25]: -0.436
- glycan array binding signal (z-score) [26]: -0.97
- glycan array binding signal (z-score) [27]: 1.5
- glycan array binding signal (z-score) [28]: 3.29
